According to ChEMBL document CHEMBL1154551, “Microbial transformation of benzosampangine” (2000):
≈ marks a conversion by molar mass, not a printed value.

Test system: Candida albicans
Test: Antimicrobial activity against Candida albicans
Assay type: functional

**Q.** `C[C@@H]1[C@H](O)[C@@H](C)/C=C/C=C/C=C/C=C/C=C/C=C/C=C/[C@H](O[C@@H]2O[C@H](C)[C@@H](O)[C@H](N)[C@@H]2O)C[C@@H]2O[C@](O)(C[C@@H](O)C[C@@H](O)[C@H](O)CC[C@@H](O)C[C@@H](O)CC(=O)O[C@H]1C)C[C@H](O)[C@H]2C(=O)O` [AMPHOTERICIN B] was tested. Which MIC did it give?
**A.** The MIC was 0.78 µg/mL (≈ 0.844 µM).
